Paper PMC12709188
Results are given in words; binding and its absence hold for the method and conditions named. In cells and extracts the contact can be indirect. Some binding calls cover weakened binding; strength is not graded here. For part of these data: Sequences can lack the tags named with a protein.

Tests used:
Assay in all cases: co-IP; FLAG pull-down: M. smegmatis lysates (2–4 mg protein; exponential and stationary phase; for RNAP-FLAG also after crsL knock-down) with M2 anti-FLAG resin 16–18 h at 4°C in 20 mM Tris–HCl pH 7.9, 150 mM KCl, 1 mM MgCl2; SDS–PAGE, silver stain, bands identified by MALDI-FTICR MS and/or western blot
[1] = target: RNAP with endogenously FLAG-tagged β′ subunit (M. smegmatis (endogenous in M. smegmatis mc2 155) | M. smegmatis) (UniProt A0QSL8+P60281+A0QS66+A0QWT1)
[2] = target: T1, CarD–FLAG (additional copy of FLAG-tagged CarD under an ATc-inducible promoter) (M. smegmatis) (UniProt A0R561)
T1 sequence: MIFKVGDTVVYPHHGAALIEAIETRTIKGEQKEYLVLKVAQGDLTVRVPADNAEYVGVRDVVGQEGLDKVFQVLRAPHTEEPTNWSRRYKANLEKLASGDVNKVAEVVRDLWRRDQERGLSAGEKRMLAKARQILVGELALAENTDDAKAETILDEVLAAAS

[3] = target: T2, CarD–gFLAG (FLAG-tag sequence inserted into the M. smegmatis genome at the carD locus) (M. smegmatis) (UniProt A0R561)
T2 sequence: T1 sequence

B1: CarD (protein, UniProt A0R561 1-162)
chain: T1 sequence
With B1 the binding [1] was “binds”.

B2: RbpA (protein, UniProt A0QZ11 1-114)
chain: MADRVLRGSRLGAVSYETDRNHDLAPRQVARYRTDNGEEFDVPFADDAEIPGTWLCRNGLEGTLIEGDVPEPKKVKPPRTHWDMLLERRSVEELEELLKERLDLIKAKRRGTGS
In the case of B2, the binding [2] is reported as “binds”.

B3: alternative σ factor σ^B (protein, UniProt A0QVZ5 1-319)
chain: MANATTSRVDTDLDAQSPAADLVRVYLNGIGKTALLNAADEVELAKRIEAGLYAQHLLDTKKRLGEARKRDLQAVVRDGEAARRHLLEANLRLVVSLAKRYTGRGMPLLDLIQEGNLGLIRAMEKFDYTKGFKFSTYATWWIRQAITRGMADQSRTIRLPVHLVEQVNKLARIKREMHQNLGREATDEELAEESGIPVEKINDLLEHSRDPVSLDMPVGTDEEAPLGDFIEDSEAMSAENAVISELLHTDIRYVLATLDEREQQVIRLRFGLDDGQPRTLDQIGKLFGLSRERVRQIEREVMAKLRNGERADRLRSYAS
B3 was tested, and the binding [3] was “binds”.
